Laboratory results taken from patent US9487562B2, “Stabilized polypeptides as regulators of RAB GTPase function” (President and Fellows of Harvard College, priority 2011, dated 2016).
Some of these results come from one statement about several compounds together.

Target: T1, RAB11 (Homo sapiens, UniProt P62491)
T1 construct: RAB11 (residues 1-175) was expressed with an N-terminal GST-tag with an internal thrombin cleavage site; GST (thrombin cleavage site between tag and RAB11) (N); made in house; host or cells: Escherichia coli BL21(DE3) pLysS
T1 sequence (P62491 1-175): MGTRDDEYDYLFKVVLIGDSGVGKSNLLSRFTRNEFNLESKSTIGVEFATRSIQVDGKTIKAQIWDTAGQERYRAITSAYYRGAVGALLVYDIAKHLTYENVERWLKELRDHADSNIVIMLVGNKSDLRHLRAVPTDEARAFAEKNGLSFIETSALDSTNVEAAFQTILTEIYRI
Test: Fluorescence polarization binding of FITC-FIP/FITC-RFP peptides to RAB11
Settings: ratio of affinities RAB11 vs RAB25
Experimental: Fluorescence polarization (FP) was used to measure FIP peptide binding to RAB11 and RAB25 proteins. […] This indicated specificity in the binding measurement, as this subtle change would be expected to perturb binding.
RAB11/25 protein binding assays were performed by incubating FITC-FIP or FITC-RFP (stapled FIP derivatives) peptides (15 nM) with three-fold dilutions of recombinantly-expressed, purified RAB11, RAB25 or a various epitope-tagged version of either in protein-binding buffer (25 mM Tris-HCl, pH 8.0, 150 mM NaCl, 1 mM EDTA, 1 mM DTT, 10 mM MgCl2, 10 mM GTP). Dilutions and incubations were made in 384-well, black flat-bottom plates (Corning) to a total volume of 40 μL and equilibrated for 60 minutes. Polarization was measured on a Spectramax-M5 multi-label plate reader with λex=485 nm and λem=525 nm. Polarization was calculated according to the standard equation: P=(V−H)/(V+H), where P=polarization, V=vertical emission intensity and H=horizontal emission intensity. Kd values were determined by fitting data to a variable-slope sigmoidal binding curve using Prizm 4 graphing software.
RAB11 and RAB25 proteins were expressed and purified in Escherichia coli strain BL21(DE3) pLysS (Stratagene) as epitope-tagged fusion proteins in various vectors (Novagen). […]

Substance: RFP16: stapled FIP peptide of second design set, SEQ ID NO: 77 (FIG. 7, top to bottom)
- bias for RAB11 versus RAB25: 2-4 fold
